The text below walks through data of paper PMC6736043.

Chains of the proteins cited; added tags and fusions are not shown.
UniProt Q14240: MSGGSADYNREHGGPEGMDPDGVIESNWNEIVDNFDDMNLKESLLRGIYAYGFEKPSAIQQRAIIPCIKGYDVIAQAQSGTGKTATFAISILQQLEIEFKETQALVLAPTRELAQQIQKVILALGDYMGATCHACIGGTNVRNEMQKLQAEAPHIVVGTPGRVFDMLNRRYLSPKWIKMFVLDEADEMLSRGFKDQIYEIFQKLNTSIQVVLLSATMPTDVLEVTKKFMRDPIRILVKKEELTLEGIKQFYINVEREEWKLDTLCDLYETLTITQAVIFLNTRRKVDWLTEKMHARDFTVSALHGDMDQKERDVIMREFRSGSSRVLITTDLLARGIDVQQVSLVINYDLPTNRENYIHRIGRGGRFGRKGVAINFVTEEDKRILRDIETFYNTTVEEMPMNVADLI
UniProt A5YKK6: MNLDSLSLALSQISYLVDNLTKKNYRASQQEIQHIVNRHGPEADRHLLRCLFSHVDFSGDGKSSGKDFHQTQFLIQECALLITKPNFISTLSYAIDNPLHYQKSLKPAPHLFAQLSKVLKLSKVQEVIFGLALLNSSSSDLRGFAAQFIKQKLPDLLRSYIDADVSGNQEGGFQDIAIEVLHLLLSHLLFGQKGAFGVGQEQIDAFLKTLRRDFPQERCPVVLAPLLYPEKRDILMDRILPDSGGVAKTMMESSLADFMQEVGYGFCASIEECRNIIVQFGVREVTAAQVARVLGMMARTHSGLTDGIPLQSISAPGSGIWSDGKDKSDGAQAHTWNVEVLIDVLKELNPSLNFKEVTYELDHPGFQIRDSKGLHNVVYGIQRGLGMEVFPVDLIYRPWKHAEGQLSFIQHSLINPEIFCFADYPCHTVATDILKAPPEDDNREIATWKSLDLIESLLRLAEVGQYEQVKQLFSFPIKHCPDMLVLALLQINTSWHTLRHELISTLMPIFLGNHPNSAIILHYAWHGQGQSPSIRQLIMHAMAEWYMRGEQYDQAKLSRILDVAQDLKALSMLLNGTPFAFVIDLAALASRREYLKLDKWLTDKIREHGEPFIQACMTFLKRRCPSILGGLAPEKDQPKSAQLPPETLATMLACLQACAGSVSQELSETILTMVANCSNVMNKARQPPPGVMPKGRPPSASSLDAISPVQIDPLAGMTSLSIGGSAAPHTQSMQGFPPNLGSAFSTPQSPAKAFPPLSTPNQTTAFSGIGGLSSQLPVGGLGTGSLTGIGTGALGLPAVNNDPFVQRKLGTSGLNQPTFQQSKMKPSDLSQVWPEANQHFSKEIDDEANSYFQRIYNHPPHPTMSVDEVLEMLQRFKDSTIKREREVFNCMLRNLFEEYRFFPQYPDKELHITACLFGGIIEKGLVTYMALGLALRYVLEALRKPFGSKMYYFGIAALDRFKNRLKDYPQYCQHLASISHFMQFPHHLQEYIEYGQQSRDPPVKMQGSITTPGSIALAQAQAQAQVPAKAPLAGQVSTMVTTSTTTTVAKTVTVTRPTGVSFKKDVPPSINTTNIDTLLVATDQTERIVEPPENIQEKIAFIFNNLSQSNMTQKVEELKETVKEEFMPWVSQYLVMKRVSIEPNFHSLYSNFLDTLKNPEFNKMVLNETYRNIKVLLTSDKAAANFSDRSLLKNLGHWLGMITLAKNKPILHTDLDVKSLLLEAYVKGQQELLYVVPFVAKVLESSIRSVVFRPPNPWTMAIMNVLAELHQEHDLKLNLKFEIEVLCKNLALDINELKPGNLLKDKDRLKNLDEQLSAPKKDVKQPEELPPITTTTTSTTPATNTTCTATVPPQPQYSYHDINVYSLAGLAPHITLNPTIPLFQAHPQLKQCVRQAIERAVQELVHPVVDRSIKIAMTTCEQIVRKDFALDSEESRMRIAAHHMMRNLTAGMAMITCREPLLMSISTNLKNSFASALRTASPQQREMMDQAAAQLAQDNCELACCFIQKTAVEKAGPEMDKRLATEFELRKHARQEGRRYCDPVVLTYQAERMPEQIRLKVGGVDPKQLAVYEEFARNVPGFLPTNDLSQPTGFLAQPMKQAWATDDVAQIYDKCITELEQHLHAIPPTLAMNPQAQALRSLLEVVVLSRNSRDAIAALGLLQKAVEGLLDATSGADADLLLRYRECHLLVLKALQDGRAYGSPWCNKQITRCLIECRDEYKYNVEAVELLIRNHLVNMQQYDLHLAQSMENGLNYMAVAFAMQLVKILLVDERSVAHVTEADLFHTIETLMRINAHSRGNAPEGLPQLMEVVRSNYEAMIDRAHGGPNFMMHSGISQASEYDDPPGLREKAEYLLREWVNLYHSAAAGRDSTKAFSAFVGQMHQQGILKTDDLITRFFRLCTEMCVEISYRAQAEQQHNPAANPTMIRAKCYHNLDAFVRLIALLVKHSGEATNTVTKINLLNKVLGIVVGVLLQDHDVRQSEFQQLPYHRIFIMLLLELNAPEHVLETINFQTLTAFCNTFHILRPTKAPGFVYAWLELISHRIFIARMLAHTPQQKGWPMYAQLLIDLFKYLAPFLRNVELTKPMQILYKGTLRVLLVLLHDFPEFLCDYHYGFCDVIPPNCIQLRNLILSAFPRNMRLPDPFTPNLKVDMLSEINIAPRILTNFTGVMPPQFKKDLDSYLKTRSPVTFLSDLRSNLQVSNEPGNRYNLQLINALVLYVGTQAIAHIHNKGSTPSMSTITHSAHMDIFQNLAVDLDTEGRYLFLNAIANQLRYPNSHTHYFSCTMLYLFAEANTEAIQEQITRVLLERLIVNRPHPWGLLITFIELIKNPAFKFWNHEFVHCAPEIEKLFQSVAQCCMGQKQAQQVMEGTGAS
UniProt O75175: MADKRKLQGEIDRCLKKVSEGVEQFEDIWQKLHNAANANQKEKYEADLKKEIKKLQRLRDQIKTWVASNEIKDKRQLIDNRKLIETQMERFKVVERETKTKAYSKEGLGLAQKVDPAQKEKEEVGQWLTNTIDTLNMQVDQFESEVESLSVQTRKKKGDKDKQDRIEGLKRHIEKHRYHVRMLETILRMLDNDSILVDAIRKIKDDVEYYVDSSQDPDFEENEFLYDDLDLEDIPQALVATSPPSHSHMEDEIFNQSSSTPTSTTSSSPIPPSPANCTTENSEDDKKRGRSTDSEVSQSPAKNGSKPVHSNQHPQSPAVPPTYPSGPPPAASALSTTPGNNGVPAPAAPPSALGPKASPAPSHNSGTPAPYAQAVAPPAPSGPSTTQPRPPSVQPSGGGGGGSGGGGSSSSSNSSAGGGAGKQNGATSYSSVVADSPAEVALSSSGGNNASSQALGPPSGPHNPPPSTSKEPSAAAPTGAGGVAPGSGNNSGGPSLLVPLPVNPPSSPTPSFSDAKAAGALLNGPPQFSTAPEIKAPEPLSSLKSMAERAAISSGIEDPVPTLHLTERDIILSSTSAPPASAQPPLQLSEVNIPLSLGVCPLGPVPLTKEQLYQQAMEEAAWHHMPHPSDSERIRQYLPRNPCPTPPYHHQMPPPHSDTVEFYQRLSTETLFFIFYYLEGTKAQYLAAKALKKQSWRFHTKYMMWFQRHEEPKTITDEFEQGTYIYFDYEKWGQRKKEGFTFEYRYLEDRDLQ
UniProt P11940: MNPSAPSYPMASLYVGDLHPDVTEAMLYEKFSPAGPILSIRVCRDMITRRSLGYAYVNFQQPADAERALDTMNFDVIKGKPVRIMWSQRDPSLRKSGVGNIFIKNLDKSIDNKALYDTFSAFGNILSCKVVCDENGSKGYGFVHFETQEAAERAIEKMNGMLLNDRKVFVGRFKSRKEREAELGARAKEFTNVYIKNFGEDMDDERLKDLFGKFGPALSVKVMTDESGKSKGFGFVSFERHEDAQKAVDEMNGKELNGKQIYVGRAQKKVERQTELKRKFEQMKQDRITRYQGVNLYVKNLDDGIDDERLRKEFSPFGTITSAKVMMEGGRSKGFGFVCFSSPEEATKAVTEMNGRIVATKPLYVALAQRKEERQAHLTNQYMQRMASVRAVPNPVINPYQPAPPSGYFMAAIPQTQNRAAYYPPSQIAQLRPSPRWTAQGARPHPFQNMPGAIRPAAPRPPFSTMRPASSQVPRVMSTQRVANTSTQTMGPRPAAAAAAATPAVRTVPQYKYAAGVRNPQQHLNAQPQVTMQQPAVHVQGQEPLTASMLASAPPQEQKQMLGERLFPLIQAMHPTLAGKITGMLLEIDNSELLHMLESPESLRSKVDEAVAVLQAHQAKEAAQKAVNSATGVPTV
UniProt P35249: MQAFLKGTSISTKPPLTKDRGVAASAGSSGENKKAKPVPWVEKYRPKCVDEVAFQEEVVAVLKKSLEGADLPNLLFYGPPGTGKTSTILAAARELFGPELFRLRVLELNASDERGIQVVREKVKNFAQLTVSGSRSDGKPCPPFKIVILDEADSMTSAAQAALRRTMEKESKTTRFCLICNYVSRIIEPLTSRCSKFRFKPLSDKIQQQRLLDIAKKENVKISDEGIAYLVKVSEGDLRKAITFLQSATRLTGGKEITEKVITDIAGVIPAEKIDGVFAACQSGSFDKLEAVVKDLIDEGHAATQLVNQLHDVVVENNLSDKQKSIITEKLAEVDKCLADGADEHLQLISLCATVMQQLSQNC
UniProt Q9C0C2: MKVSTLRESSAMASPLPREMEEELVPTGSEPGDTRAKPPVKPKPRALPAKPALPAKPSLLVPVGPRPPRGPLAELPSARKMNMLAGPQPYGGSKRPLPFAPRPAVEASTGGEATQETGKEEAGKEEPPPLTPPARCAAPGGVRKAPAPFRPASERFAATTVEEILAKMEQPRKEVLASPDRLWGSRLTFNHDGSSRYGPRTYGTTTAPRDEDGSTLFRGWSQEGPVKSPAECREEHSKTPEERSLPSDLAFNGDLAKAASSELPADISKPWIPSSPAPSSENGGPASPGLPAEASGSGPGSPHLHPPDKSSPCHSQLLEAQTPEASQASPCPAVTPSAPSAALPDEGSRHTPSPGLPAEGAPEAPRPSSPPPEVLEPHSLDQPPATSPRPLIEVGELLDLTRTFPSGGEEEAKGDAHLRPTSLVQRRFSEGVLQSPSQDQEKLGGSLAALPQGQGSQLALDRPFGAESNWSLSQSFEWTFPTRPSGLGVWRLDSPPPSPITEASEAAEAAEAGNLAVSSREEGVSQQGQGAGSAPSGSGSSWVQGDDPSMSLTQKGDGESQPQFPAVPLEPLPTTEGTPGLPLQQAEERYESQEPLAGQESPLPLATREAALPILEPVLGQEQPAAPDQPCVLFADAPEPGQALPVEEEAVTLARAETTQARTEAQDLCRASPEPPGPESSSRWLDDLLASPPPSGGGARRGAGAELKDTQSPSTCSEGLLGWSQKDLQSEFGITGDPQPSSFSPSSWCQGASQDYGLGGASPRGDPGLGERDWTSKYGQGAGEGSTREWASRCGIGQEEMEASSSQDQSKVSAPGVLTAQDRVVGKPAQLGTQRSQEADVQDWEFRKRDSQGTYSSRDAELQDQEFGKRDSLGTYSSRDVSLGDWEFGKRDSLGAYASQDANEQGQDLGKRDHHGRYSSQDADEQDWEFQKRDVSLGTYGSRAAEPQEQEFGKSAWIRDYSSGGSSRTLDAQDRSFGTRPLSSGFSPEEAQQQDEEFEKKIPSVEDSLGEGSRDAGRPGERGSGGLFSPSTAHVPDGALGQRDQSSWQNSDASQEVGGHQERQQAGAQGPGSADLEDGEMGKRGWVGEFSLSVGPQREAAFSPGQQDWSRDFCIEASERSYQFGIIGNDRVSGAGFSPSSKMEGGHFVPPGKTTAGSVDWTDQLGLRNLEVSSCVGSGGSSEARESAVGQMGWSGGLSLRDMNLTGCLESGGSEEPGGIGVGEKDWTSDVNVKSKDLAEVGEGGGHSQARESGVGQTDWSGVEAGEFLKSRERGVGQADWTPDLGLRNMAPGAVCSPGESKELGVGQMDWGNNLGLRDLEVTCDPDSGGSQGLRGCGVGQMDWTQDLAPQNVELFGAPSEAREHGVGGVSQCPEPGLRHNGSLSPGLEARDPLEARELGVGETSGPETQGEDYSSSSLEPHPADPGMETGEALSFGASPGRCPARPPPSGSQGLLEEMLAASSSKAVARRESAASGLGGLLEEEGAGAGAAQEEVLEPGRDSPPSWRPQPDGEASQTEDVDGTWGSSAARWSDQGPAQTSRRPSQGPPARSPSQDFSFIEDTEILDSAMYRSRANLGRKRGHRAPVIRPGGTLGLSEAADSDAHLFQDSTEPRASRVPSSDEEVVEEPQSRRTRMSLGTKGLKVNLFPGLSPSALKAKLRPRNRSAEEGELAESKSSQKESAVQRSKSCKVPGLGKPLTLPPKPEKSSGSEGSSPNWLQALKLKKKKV

No constants are given. Whether binding was seen depends on the method and setting. Binding seen in cells or lysates may run through a third protein. Here binding means that the protein was enriched with, or labelled near, the bait; the list need not be complete.

For test [1], the target named is eIF4A2 (human (endogenous in HeLa and HEK293)) (UniProt Q14240). The test can be described thus: affinity purification with mass spectrometry; CNOT1 and eIF4A2 immunoprecipitations from gel filtration fractions 30–32 of cytoplasmic HeLa lysate, IgG control; CNOT1 IP repeated with peptide elution; LC–MS/MS. Background: SEC sorts molecules by how far they enter the pores of the column.

Test [2] concerns the target CNOT1 (human (endogenous in HeLa)) (UniProt A5YKK6). The description is as above.

Take CNOT3 (from UniProt O75175 1-753): the binding entry in test [1] and in test [2] was “binds” each time.

Consider COPA (from UniProt P53621 1-1224), for which the binding entry in test [1] and in test [2] was “binds” in each case.

Turning to PABP1 (from UniProt P11940 1-636), the binding entry in test [1] and in test [2] was “binds” in each case.

Turning to RFC4 (from UniProt P35249 1-363), the binding result in test [1] and in test [2] was “binds” each time.

For TAB182 (from UniProt Q9C0C2 1-1729), the binding entry in test [1] and in test [2] was “binds” in each case.
